Measured values from article doi:10.1101/2021.12.21.473581.
Results are given in words; binding and its absence hold for the method and conditions named. Binding seen in cells or lysates may run through a third protein. Some entries that bind do so weakly or less than the wild type.

Chains of the proteins cited; added tags and fusions are not shown. Lines headed by an entry give the natural chain unless they say otherwise; changes in a name come on top. Residues count along the entry.
UniProt P13688, residues 35-526: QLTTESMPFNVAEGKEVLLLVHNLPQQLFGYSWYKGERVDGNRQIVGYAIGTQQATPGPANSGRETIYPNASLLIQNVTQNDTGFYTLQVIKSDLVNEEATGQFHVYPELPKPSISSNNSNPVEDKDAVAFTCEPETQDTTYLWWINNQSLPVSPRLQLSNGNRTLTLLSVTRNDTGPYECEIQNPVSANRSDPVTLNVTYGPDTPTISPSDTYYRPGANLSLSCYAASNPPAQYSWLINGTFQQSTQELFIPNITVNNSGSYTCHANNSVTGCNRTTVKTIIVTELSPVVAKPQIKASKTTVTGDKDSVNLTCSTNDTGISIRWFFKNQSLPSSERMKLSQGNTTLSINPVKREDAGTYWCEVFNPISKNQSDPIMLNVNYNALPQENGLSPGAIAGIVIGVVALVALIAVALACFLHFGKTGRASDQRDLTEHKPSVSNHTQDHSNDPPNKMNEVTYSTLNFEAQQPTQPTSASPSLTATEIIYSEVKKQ

Target: CEACAM1-4L with a carboxyl-terminus fused eYFP (CEACAM1-eYFP) (UniProt P13688)
Test: FRET or BRET

Substance: CEACAM1-4L with a carboxyl-terminus fused eYFP (CEACAM1-eYFP) (from UniProt P13688-1 35-526) (receptor)
- binding: binds
